Results published in patent US9783523B2, “N-acylimino heterocyclic compounds” (BASF SE, priority 2013, dated 2017).
Some of these results come from one statement about several compounds together. At least one compound was matched to its structure with a doubt left.

How the values were obtained:
Format in all cases: in vivo
Aphis craccivora = test: Cowpea aphid (Aphis craccivora), potted cowpea plants sprayed; settings: 500 ppm; plant spray, after 72 hours
Method: The active compound is dissolved at the desired concentration in a mixture of 1:1 (vol:vol) distilled water:acetone. Surfactant (Alkamuls® EL 620) is added at a rate of 0.1% (vol/vol). The test solution is prepared at the day of use.
Potted cowpea plants are colonized with approximately 50-100 aphids of various stages by manually transferring a leaf tissue cut from infested plant 24 hours before application. Plants are sprayed after the pest population has been recorded. Treated plants are maintained on light carts at about 28° C. Percent mortality is assessed after 72 hours.

Megoura viciae = test: Vetch aphid (Megoura viciae), sprayed bean leaf disks in microtiter plates; settings: 2500 ppm, 6 days
Method: The active compounds were formulated in 3:1 (vol:vol) water:DMSO with different concentrations of formulated compounds.
Bean leaf disks were placed into microtiterplates filled with 0.8% agar-agar and 2.5 ppm OPUS™. The leaf disks were sprayed with 2.5 μl of the test solution and 5 to 8 adult aphids were placed into the microtiter plates which were then closed and kept at 23±1° C. and 50±5% relative humidity under fluorescent light for 6 days. Mortality was assessed on the basis of vital, reproduced aphids. Aphid mortality and fecundity was then visually assessed.

Myzus persicae = test: Green peach aphid (Myzus persicae), systemic control, liquid artificial diet under membrane in 96-well microtiter plates; settings: 2500 ppm; adult aphids on treated diet, 3 days
Excerpt: General conditions: If not otherwise specified, most test solutions are to be prepared as follows: The active compound is to be dissolved at the desired concentration in a mixture of 1:1 (vol:vol) distilled water:acteon. Further, the test solutions are to be prepared at the day of use (and, if not otherwised specified, in general at concentrations wt/vol).
For evaluating control of green peach aphid (Myzus persicae) through systemic means, the test unit consists of 96-well-microtiter plates containing liquid artificial diet under an artificial membrane.
The compounds are formulated using a solution containing 75% v/v water and 25% v/v DMSO. Different concentrations of formulated compounds are pipetted into the aphid diet, using a custom built pipetter, at two replications.
After application, 5-8 adult aphids are placed on the artificial membrane inside the microtiter plate wells. The aphids are then allowed to suck on the treated aphid diet and incubated at about 23+1° C. and about 50+5% relative humidity for 3 days. Aphid mortality and fecundity is then visually assessed.

Dichromothrips corbetti = test: Orchid thrips (Dichromothrips corbetti), floral-immersion technique; settings: 500 ppm; flowers dipped, 72 hours after treatment
Method: Dichromothrips corbetti adults used for bioassay are obtained from a colony maintained continuously under laboratory conditions. For testing purposes, the test compound is diluted in a 1:1 mixture of acetone:water (vol:vol), plus 0.01% vol/vol Alkamuls® EL 620 surfactant.
Thrips potency of each compound is evaluated by using a floral-immersion technique. Plastic petri dishes are used as test arenas. All petals of individual, intact orchid flowers are dipped into treatment solution and allowed to dry. Treated flowers are placed into individual petri dishes along with about 20 adult thrips. The petri dishes are then covered with lids. All test arenas are held under continuous light and a temperature of about 28° C. for duration of the assay. After 3 days, the numbers of live thrips are counted on each flower, and along inner walls of each petri dish. The percent mortality is recorded 72 hours after treatment.

Nephotettix virescens = test: Rice green leafhopper (Nephotettix virescens), sprayed rice seedlings; settings: 300 ppm, after 72 hours
Method: Rice seedlings are cleaned and washed 24 hours before spraying. The active compounds are formulated in 50:50 acetone:water (vol:vol), and 0.1% vol/vol surfactant (EL 620) is added. Potted rice seedlings are sprayed with 5 ml test solution, air dried, placed in cages and inoculated with 10 adults. Treated rice plants are kept at about 28-29° C. and relative humidity of about 50-60%. Percent mortality is recorded after 72 hours.

Row | SMILES | mortality in comparison with untreated controls (Aphis craccivora) | mortality in comparison with untreated controls (Megoura viciae) | mortality in comparison with untreated controls (Myzus persicae) | mortality in comparison with untreated controls (Dichromothrips corbetti) | mortality in comparison with untreated controls (Nephotettix virescens)
1 | O=C(C=NNC(=O)Nc1cc(F)cc(F)c1)N=c1ccccn1Cc1ccc(Cl)nc1 [Compound I-508] | at least 75% | at least 75% |  |  | 
2 | CC(=NNc1cccc(Cl)c1Cl)C(=O)N=c1ccccn1Cc1ccc(Cl)nc1 [Compound I-197] |  |  | at least 75% | at least 75% | 
3 | CC(=O)C(=NOCc1ccc(Cl)cc1)C(=O)N=c1ccccn1Cc1ccc(Cl)nc1 [Compound I-554] |  |  | at least 75% | at least 75% | 
4 | O=C(N=c1ccccn1Cc1ccc(Cl)nc1)C(=NOc1ccc([N+](=O)[O-])cc1)C1CC1 [Compound I-476] |  |  |  | at least 75% | 
5 | O=C(N=c1ccccn1Cc1ccc(Cl)nc1)C(=NNc1ccc(F)cc1Cl)C1CC1 (mixture of isomers) [Compound I-375] | at least 75% | at least 75% |  |  | 
6 | CC(=NOCc1c(Cl)ccc(Cl)c1Cl)C(=O)N=c1ccccn1Cc1ccc(Cl)nc1 [Compound I-427] |  |  | at least 75% |  | at least 75%
7 | CC(=NNc1ccc(C)cc1Cl)C(=O)N=c1ccccn1Cc1ccc(Cl)nc1 [Compound I-333] |  |  |  | at least 75% | at least 75%
8 | O=C(C=NOCc1c(F)cccc1C(F)(F)F)N=c1ccccn1Cc1cnc(Cl)s1 [Compound I-118] | at least 75% |  | at least 75% |  | 
9 | O=C(NN=C(C(=O)N=c1ccccn1Cc1ccc(Cl)nc1)C1CC1)Nc1cc(F)cc(F)c1 [Compound I-533] |  |  |  | at least 75% | 
10 | Cc1ccc(CNC(=O)NN=C(C(=O)N=c2ccccn2Cc2ccc(Cl)nc2)C2CC2)cc1 (mixture of isomers) [Compound I-468] |  |  | at least 75% | at least 75% | 
11 | O=C(N=c1ccccn1Cc1ccc(Cl)nc1)C(=NNc1ccc(C(F)(F)F)cc1)C1CC1 [Compound I-373] |  |  | at least 75% | at least 75% | 
12 | CC(=NNC(=O)Nc1cc(Cl)cc(Cl)c1)C(=O)N=c1ccccn1Cc1ccc(Cl)nc1 [Compound I-521] |  |  | at least 75% | at least 75% | 
13 | O=C(NCc1ccccc1)NN=C(C(=O)N=c1ccccn1Cc1ccc(Cl)nc1)C1CC1 [Compound I-537] |  |  | at least 75% | at least 75% | 
14 | O=C(N=c1ccccn1Cc1ccc(Cl)nc1)C(=NOc1ccc(F)cc1F)C1CC1 [Compound I-530] | at least 75% | at least 75% |  |  | 
15 | O=C(N=c1ccccn1Cc1ccc(Cl)nc1)C(=NNc1c(F)cc(F)cc1F)C1CC1 [Compound I-377] |  |  |  | at least 75% | 
16 | COc1cccc(NN=C(C(=O)N=c2ccccn2Cc2ccc(Cl)nc2)C2CC2)c1 [Compound I-175] |  | at least 75% | at least 75% | at least 75% | at least 75%
17 | CC(C)(ON=C(C(=O)N=c1ccccn1Cc1ccc(Cl)nc1)C1CC1)C(=O)O [Compound I-482] |  |  |  | at least 75% | 
18 | O=C(NN=C(C(=O)N=c1ccccn1Cc1ccc(Cl)nc1)C1CC1)Nc1cccc(Cl)c1 [Compound I-536] |  |  |  | at least 75% | 
19 | O=C(N=c1ccccn1Cc1ccc(Cl)nc1)C(=NOCc1cccc(C(F)(F)F)c1F)C1CC1 (mixture of isomers) [Compound I-455] |  |  |  | at least 75% | 

Row | SMILES | mortality in comparison with untreated controls (Aphis craccivora) | mortality in comparison with untreated controls (Megoura viciae) | mortality in comparison with untreated controls (Myzus persicae) | mortality in comparison with untreated controls (Dichromothrips corbetti) | mortality in comparison with untreated controls (Nephotettix virescens)
20 | CON=C(C#Cc1ccccc1)C(=O)N=c1ccccn1Cc1ccc(Cl)nc1 [Compound I-568] | at least 75% |  |  | at least 75% | 
21 | CC(=NNc1c(F)cc(F)cc1F)C(=O)N=c1ccccn1Cc1ccc(Cl)nc1 (mixture of isomers) [Compound I-340] | at least 75% | at least 75% |  |  | 
22 | O=C(N=c1ccccn1Cc1ccc(Cl)nc1)C1=NOC(c2cc(Cl)cc(Cl)c2)(C(F)(F)F)C1 (racemic) [Compound I-571] | at least 75% |  |  |  | 
23 | O=C(N=c1ccccn1Cc1ccc(Cl)nc1)C(=NOC1CCCC1)C1CC1 (mixture of isomers) [Compound I-465] |  |  | at least 75% | at least 75% | 
24 | O=C(C=NOCc1cc(F)c(F)cc1Cl)N=c1ccccn1Cc1cnc(Cl)s1 [Compound I-127] | at least 75% |  |  |  | 
25 | CCCc1ccc(CON=C(C(=O)N=c2ccccn2Cc2ccc(Cl)nc2)C2CC2)cc1 [Compound I-460] | at least 75% | at least 75% |  |  | 
26 | O=C(N=c1ccccn1Cc1ccc(Cl)nc1)C1=NOC(c2ccc(C(F)(F)F)cc2)C1 (racemic) [Compound I-569] |  | at least 75% | at least 75% | at least 75% | 
27 | CC(=NNC(=O)Nc1cc(F)cc(F)c1)C(=O)N=c1ccccn1Cc1ccc(Cl)nc1 [Compound I-519] |  |  | at least 75% | at least 75% | 
28 | CC(=NNC(=O)Nc1cccc(Cl)c1)C(=O)N=c1ccccn1Cc1ccc(Cl)nc1 [Compound I-522] |  |  | at least 75% | at least 75% | 
29 | CCCCNC(=O)NN=C(C(=O)N=c1ccccn1Cc1ccc(Cl)nc1)C1CC1 (mixture of isomers) [Compound I-169] |  |  |  | at least 75% | 
30 | CC(=NOc1ccc(Cl)c(Cl)c1)C(=O)N=c1ccccn1Cc1ccc(Cl)nc1 [Compound I-268] |  | at least 75% | at least 75% |  | 
31 | CCOC(=O)C=CC(C)ON=C(C#N)C(=O)N=c1ccccn1Cc1ccc(Cl)nc1 (stereo not shown) [Compound I-696] |  | at least 75% | at least 75% |  | 
32 | O=C(N=c1ccccn1Cc1ccc(Cl)nc1)C1=NOC(c2ccccc2[N+](=O)[O-])C1 (racemic) [Compound I-579] | at least 75% | at least 75% | at least 75% |  | 
33 | O=C(N=c1ccccn1Cc1ccc(Cl)nc1)C(=NNc1ccc(Cl)cc1Cl)C1CC1 [Compound I-177] |  | at least 75% | at least 75% |  | 
34 | Cc1cccc(NN=C(C(=O)N=c2ccccn2Cc2ccc(Cl)nc2)C2CC2)c1 [Compound I-474] |  |  | at least 75% | at least 75% | 
35 | CNC(=O)C(=NOCc1ccc(Cl)cc1)C(=O)N=c1ccccn1Cc1ccc(Cl)nc1 [Compound I-68] |  | at least 75% | at least 75% |  | 
36 | CC(=NOc1cccc(C(F)(F)F)c1)C(=O)N=c1ccccn1Cc1ccc(Cl)nc1 [Compound I-266] |  | at least 75% | at least 75% |  | 
37 | O=C(N=c1ccccn1Cc1ccc(Cl)nc1)C(=NNc1ccccc1C(F)(F)F)C1CC1 [Compound I-376] |  |  |  | at least 75% | 
38 | CC(C)C(=O)C(=NO)C(=O)N=c1ccccn1Cc1ccc(Cl)nc1 [Compound I-590] | at least 75% |  |  |  | at least 75%
